At least one structure is not confirmed: it was looked up by name or label, or the drawing left a doubt.
Tests used:
[1] = system: rat primary cortical neuron cells; experiment: LDH release in human Aβ1-42 intoxicated rat primary cortical neuron culture; format: cell-based; conditions: single drugs, Aβ1-42 10 μM, 24 h, Table 4
Description: Primary rat cortical neurons are cultured as described previously.
The control medium was prepared in the same conditions.
Cortical neurons were intoxicated for 24 hours. Three separate cultures were performed per condition, 6 wells per condition.
This colorimetric assay for the quantification of cell toxicity is based on the measurement of lactate dehydrogenase (LDH) activity released from the cytosol of dying cells into the supernatant.
All values are expressed as mean±s.e.mean of the 3 cultures (n=6 per condition).

[2] = system: Human Brain Microvascular Endothelial Cells (HBMEC); experiment: Capillary network length in human Aβ1-42 intoxicated HBMEC on matrigel; format: cell-based; conditions: single drugs, Aβ1-42 2.5 μM, 18 h, Table 5
Description: Human brain microvascular endothelial cerebral cells (HBMEC, ScienCell Ref: 1000, frozen at passage 10) were rapidly thawed in a waterbath at +37° C. The supernatant was immediately put in 9 ml Dulbecco's modified Eagle's medium (DMEM; Pan Biotech ref: P04-03600) containing 10% of foetal calf serum (FCS; GIBCO ref 10270-106). […]
The following conditions were assessed: • Negative Control: medium alone+0.1% DMSO • Intoxication: amyloid-β1-42 (2.5 μM) for 18 h • Positive control: VEGF-165 (10 nM) (1 reference compound/culture) 1 hr before the Aβ1-42 (2.5 μM) addition for a 18 h incubation time. • Test compounds: Test compound I hr before the Aβ1-42 (2.5 μM) addition for a 18 h incubation time. Capillary Network Quantification
Per well, 2 pictures with 4× lens were taken using InCell Analyzer™ 1000 (GE Healthcare) in light transmission. […] The total length of capillary network was assessed.
All values are expressed as mean±s.e.mean of the 3 cultures (n=6 per condition). […] Indeed, the amyloid toxicity was taken as the 100% and the test compound effect was calculated as a % of this amyloid toxicity. […]

NCC(CC(=O)O)c1ccc(Cl)cc1 (racemic) [Baclofen (+/−), Baclofen]
Protective effect on Aβ1-42 toxicity in neuronal cells [1]: +
Protective effect in Aβ1-42 intoxicated HBMC [2]: +

From patent US8552041B2, “Therapeutic approaches for treating alzheimer disease and related disorders through a modulation of cell stress response” (Pharnext, priority 2008, dated 2013)
